No constants are given. Whether binding was seen depends on the method and setting. In cells and extracts the contact can be indirect. These calls come from enrichment with a bait or labelling near it, and not all partners need be listed.

By UniProt entry, the sequences of proteins in these tests, tags left out.
UniProt P35465: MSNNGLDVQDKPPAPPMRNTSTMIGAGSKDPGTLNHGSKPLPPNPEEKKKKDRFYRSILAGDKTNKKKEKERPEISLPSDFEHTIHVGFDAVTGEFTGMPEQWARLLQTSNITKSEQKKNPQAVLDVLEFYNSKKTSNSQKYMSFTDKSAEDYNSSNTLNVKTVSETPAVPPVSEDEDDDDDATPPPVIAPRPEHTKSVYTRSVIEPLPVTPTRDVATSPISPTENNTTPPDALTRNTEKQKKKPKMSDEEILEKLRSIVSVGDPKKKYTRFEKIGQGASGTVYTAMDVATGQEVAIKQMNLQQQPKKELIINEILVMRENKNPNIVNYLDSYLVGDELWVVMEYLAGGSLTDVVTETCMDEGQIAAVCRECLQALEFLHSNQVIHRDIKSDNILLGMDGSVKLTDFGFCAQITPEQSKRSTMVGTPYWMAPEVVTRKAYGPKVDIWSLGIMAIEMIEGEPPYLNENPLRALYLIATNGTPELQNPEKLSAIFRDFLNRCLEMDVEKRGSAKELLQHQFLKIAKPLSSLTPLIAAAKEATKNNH
UniProt P45592: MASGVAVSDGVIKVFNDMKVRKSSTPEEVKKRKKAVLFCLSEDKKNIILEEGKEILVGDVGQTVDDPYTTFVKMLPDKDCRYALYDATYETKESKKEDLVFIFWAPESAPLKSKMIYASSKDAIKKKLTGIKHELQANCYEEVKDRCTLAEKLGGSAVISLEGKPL

This passage reports binding results from paper doi:10.1101/2023.10.16.555467.

The target in this assay is P21-activated kinase 1 (PAK1) (rat (endogenous in primary rat oligodendrocytes)) (UniProt P35465). Briefly: affinity purification with mass spectrometry.

As for cofilin-1 (from UniProt P45592 1-166), the binding entry was “binds”.
